In patent publication US20190083587A1 (Novo Nordisk, published 2019):
These are yes or no findings as the source states them, for the method shown. Some entries that bind do so weakly or less than the wild type.

How the values were obtained:
Assay in all cases: SPR ProteOn, mAb captured by anti-hFc, 100 nM mutant, signal 10 s after injection, relative to wt
hTLT-1 ECD-HPC4 Q43A = biological target: T1, hTLT-1 ECD-HPC4 Q43A (human, UniProt Q86YW5 16-162)
T1 construct: Built as m17; also called Ala mutant 9
T1 chain: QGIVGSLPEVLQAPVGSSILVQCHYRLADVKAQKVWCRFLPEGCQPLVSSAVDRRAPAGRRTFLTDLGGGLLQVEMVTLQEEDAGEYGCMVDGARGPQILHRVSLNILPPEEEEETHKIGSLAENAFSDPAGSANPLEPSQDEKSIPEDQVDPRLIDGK

hTLT-1 ECD-HPC4 R41A = biological target: T2, hTLT-1 ECD-HPC4 R41A (human, UniProt Q86YW5 16-162)
T2 construct: Built as m17; also called Ala mutant 7
T2 chain: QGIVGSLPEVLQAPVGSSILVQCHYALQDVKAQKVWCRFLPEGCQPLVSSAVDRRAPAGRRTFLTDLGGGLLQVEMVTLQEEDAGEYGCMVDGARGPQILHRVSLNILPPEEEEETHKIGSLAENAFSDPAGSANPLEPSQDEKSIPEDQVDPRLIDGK

hTLT-1 ECD-HPC4 K46A = biological target: T3, hTLT-1 ECD-HPC4 K46A (human, UniProt Q86YW5 16-162)
T3 construct: Built as m17; also called Ala mutant 10
T3 chain: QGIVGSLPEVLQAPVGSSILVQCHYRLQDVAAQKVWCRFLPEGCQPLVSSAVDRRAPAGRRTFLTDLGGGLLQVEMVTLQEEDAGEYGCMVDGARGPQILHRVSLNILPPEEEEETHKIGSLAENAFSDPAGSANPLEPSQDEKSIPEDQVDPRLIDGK

hTLT-1 ECD-HPC4 L42A = biological target: T4, hTLT-1 ECD-HPC4 L42A (human, UniProt Q86YW5 16-162)
T4 construct: Built as m17; also called Ala mutant 8
T4 chain: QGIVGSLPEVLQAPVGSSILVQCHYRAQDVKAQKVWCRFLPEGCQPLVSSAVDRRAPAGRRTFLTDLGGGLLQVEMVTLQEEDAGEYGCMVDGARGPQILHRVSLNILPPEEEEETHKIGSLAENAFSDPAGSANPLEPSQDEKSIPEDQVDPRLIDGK

hTLT-1 ECD-HPC4 R117A = biological target: T5, hTLT-1 ECD-HPC4 R117A (human, UniProt Q86YW5 16-162)
T5 construct: Built as m17; also called Ala mutant 32
T5 chain: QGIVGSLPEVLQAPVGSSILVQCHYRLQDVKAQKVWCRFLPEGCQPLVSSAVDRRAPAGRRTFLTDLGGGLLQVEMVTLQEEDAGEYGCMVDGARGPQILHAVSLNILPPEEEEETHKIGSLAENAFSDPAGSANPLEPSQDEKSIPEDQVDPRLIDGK

hTLT-1 ECD-HPC4 M91A = biological target: T6, hTLT-1 ECD-HPC4 M91A (human, UniProt Q86YW5 16-162)
T6 construct: Built as m17; also called Ala mutant 24
T6 chain: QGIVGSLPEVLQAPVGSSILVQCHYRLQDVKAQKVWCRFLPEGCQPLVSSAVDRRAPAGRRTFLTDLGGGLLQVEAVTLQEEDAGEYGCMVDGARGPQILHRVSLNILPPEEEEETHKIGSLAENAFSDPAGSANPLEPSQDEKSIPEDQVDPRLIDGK

hTLT-1 ECD-HPC4 R110A = biological target: T7, hTLT-1 ECD-HPC4 R110A (human, UniProt Q86YW5 16-162)
T7 construct: Built as m17; also called Ala mutant 30
T7 chain: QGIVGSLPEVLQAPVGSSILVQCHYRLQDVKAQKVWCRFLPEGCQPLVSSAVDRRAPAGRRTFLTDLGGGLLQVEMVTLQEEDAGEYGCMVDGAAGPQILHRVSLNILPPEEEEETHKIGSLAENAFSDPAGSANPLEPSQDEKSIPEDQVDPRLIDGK

hTLT-1 ECD-HPC4 H116A = biological target: T8, hTLT-1 ECD-HPC4 H116A (human, UniProt Q86YW5 16-162)
T8 construct: Built as m17; also called Ala mutant 31
T8 chain: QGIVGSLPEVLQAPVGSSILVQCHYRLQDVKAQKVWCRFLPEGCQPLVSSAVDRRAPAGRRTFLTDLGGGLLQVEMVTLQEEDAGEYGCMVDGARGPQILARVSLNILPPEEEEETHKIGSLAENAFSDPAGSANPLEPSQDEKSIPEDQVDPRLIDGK

hTLT-1 ECD-HPC4 S119A = biological target: T9, hTLT-1 ECD-HPC4 S119A (human, UniProt Q86YW5 16-162)
T9 construct: Built as m17; also called Ala mutant 33
T9 chain: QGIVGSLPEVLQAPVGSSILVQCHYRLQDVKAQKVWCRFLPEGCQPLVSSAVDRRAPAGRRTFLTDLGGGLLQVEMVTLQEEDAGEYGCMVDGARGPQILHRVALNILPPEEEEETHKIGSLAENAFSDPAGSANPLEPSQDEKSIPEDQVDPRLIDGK

hTLT-1 ECD-HPC4 F54A = biological target: T10, hTLT-1 ECD-HPC4 F54A (human, UniProt Q86YW5 16-162)
T10 construct: Built as m17; also called Ala mutant 12
T10 chain: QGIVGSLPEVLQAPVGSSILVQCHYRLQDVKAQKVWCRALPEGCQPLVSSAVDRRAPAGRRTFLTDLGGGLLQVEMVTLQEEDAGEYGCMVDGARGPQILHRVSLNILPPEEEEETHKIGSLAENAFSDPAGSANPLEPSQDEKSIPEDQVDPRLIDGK

Measured: binding

B1: mAb0061 (antibody, human IgG4 S228P, kappa, V domains shown)
VH: EVKLLESGGGLVQPGGSLKLSCAASGFDFSRYWMTWVRQAPGKGLEWIGEINPDSSTINYNPSLKDKFIISRDNAKNTLYLQMSEVRSEDTALYYCASGVFTSWGQGTLVTVSA
VL: DVVMTQTPLSLPVSLGDQASISCRSSQSLVHRNGNTYFHWALQKPGQSPKLLIYKVSNRFSGVPDRFSGSGSGTDFTLKISRVEAEDLGVYFCSQSTHVPYTFGGGTKLEIKR
notes: Mouse VH/VL, human IgG4 / kappa; variant of mAb0012 (HC T60N, LC C36A, Kabat); also called antiTLT-1 0061mab; (0012HC.T60N)2
binds: all assays above
